Source: patent US20120165403A1, “METHODS OF INHIBITING THE ACTIVITY OF HSP90 AND/OR ARYL HYDROCARBON RECEPTOR” (UNIVERSITY OF ROCHESTER, priority 2004, published 2012)

System: AhR
Experiment: Sucrose density gradient sedimentation of the AhR in Hepa cytosol
Type: biochemical, mouse
Settings: for gradient fractions in which the AhR sediments, 9S region: 200 μM EGCG (predominant fractions) or 10 nM TCDD

| Structure (SMILES) | additional gradient fractions in which the AhR was detected (Hepa cytosol, 200 μM EGCG, 2 h) | gradient fractions in which the AhR sediments, 9S region (Hepa cytosol, 2 h) | sedimentation coefficient of the shifted AhR complex (fractions 21-23, crude estimate relative to 14C-BSA (4.4S)) |
| --- | --- | --- | --- |
| O=C(O[C@@H]1Cc2c(O)cc(O)cc2O[C@@H]1c1cc(O)c(O)c(O)c1)c1cc(O)c(O)c(O)c1 [EGCG, epigallocatechin gallate] | 21-23 fractions | 13-15 fractions | 13-14 S |
| Clc1cc2c(cc1Cl)Oc1cc(Cl)c(Cl)cc1O2 [TCDD, 2,3,7,8-tetrachlorodibenzo-p-dioxin, reference compound] |  | 8-16 fractions |  |
